Substitutions are numbered along the chain they refer to. No constants are given. Whether binding was seen depends on the method and setting. Some binding calls cover weakened binding; strength is not graded here.
B1: chimeric VH0/VK0 antibody (murine 11C12 variable regions, human IgG1/kappa constant regions) (antibody, V domains shown)
VH: EVTLKESGGGLVQPGGSRKLSCAASGFTFSTFGIHWVRQAPEKGLEWVAYISGASTTIYYADTVKGRFTISRDNPKNTLFLQMTSLRSEDTAMYYCARYGTSFPYGLDYWGQGTSVTVSS
VL: DIVMTQSPGSLAVSLGQRATISCKASQSVDYDGDSYMNWYQQKPGQPPKLLIYGASNLESGIPARFSGSGSGTDFTLNIHPVEEEDAASYYCQQSNEDPFTFGSGTKLEIKR
B2: VH0/VK1 (antibody, human IgG1, kappa, V domains shown)
VH: B1 VH
VL: B1 VL with Q17E, S22N, Q46K, P47A, A64D, N78T, H80S, P81R, V82L, S104Q
B3: VH1/VK0 (antibody, human IgG1, kappa, V domains shown)
VH: B1 VH with K5V, E42G, P75S, F80Y, T84N
VL: B1 VL
B4: VH4/VK1 humanized 11C12 antibody (antibody, human IgG1, kappa, V domains shown)
VH: B1 VH with T3Q, K5V, R18L, E42G, P75S, F80Y, T84N, S88A, M93V, S115L
VL: B1 VL with Q17E, S22N, Q46K, P47A, A64D, N78T, H80S, P81R, V82L, S104Q
B5: VH4/VK2 humanized 11C12 antibody (antibody, human IgG1, kappa, V domains shown)
VH: B1 VH with T3Q, K5V, R18L, E42G, P75S, F80Y, T84N, S88A, M93V, S115L
VL: DIVMTQSPDSLAVSLGERATINCKASQSVDYDGDSYMNWYQQKPGKAPKLLIYGASNLESGIPDRFSGSGSGTDFTLTISRLEPEDAASYYCQQSNEDPFTFGQGTKLEIKR
B6: VH4/VK4 humanized 11C12 antibody (antibody, human IgG1, kappa, V domains shown)
VH: B1 VH with T3Q, K5V, R18L, E42G, P75S, F80Y, T84N, S88A, M93V, S115L
VL: B5 VL with A25S
B7: VH4/VK5 humanized 11C12 antibody (antibody, human IgG1, kappa, V domains shown)
VH: B1 VH with T3Q, K5V, R18L, E42G, P75S, F80Y, T84N, S88A, M93V, S115L
VL: B5 VL with A25S, S89V
B8: VH5/VK1 humanized 11C12 antibody (antibody, human IgG1, kappa, V domains shown)
VH: EVQLVESGGGLVQPGGSLKLSCAASGFTFSTFGIHWVRQAPGKGLEWVAYISGASTTIYYADSVKGRFTISRDNSKNTLYLQMNSLRAEDTAVYYCARYGTSFPYGLDYWGQGTLVTVSS
VL: B5 VL with D9G, P84E
B9: VH5/VK2 humanized 11C12 antibody (antibody, human IgG1, kappa, V domains shown)
VH: B8 VH
VL: B5 VL
B10: VH5/VK4 humanized 11C12 antibody (antibody, human IgG1, kappa, V domains shown)
VH: B8 VH
VL: B5 VL with A25S
B11: VH5/VK5 humanized 11C12 antibody (antibody, human IgG1, kappa, V domains shown)
VH: B8 VH
VL: B5 VL with A25S, S89V
B12: VH6/VK1 humanized 11C12 antibody (antibody, human IgG1, kappa, V domains shown)
VH: B8 VH with Y50S
VL: B5 VL with D9G, P84E
B13: VH6/VK2 humanized 11C12 antibody (antibody, human IgG1, kappa, V domains shown)
VH: B8 VH with Y50S
VL: B5 VL
B14: VH6/VK3 humanized 11C12 antibody (antibody, human IgG1, kappa, V domains shown)
VH: B8 VH with Y50S
VL: B5 VL with S89V
B15: VH6/VK4 humanized 11C12 antibody (antibody, human IgG1, kappa, V domains shown)
VH: B8 VH with Y50S
VL: B5 VL with A25S
B16: VH6/VK5 humanized 11C12 antibody (antibody, human IgG1, kappa, V domains shown)
VH: B8 VH with Y50S
VL: B5 VL with A25S, S89V

By UniProt entry, the sequences of proteins in these tests, tags left out. Where a name states a change or a piece, a line headed by the entry shows the natural chain unless it says otherwise.
UniProt P54756: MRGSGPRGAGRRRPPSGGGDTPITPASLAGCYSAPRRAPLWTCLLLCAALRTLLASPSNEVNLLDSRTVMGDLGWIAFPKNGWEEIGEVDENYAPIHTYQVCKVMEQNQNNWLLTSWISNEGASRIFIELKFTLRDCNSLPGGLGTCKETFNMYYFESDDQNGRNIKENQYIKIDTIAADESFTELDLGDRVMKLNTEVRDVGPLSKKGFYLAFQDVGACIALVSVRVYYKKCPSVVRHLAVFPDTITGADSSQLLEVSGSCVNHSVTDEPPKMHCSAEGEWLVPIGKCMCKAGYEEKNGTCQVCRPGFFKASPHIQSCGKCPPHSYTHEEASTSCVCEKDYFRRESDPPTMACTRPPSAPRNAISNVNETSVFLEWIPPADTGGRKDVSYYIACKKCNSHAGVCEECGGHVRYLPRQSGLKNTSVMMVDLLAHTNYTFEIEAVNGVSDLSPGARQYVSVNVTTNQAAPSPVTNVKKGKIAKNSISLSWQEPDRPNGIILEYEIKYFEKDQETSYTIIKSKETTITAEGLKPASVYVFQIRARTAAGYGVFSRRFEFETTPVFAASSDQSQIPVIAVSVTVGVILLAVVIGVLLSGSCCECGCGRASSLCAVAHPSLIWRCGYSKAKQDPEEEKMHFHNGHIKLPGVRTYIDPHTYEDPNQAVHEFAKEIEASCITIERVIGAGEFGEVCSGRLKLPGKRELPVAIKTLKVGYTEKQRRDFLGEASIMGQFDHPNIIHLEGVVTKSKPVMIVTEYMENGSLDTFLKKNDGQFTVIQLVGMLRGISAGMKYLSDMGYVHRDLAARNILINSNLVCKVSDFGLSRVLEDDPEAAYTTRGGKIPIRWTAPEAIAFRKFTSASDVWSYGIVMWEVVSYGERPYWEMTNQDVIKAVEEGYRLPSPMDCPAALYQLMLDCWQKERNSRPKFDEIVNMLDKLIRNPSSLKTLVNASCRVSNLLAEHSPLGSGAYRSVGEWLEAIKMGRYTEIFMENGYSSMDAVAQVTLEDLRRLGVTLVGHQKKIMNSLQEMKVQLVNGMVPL

Columns and labels:
[1] = biological target: recombinant human EphA5 (rhEphA5) antigen (human) (UniProt P54756); assay: SPR single-cycle kinetics (Biacore T200), antibody captured on anti-human IgG CM5 chip, rising concentrations of rhEphA5 injected, raw and 1:1-fitted curves
[2] = biological target: recombinant human EphA5 (rhEphA5) antigen (human) (UniProt P54756); assay: SPR multi-cycle kinetics (Biacore T200), IgG captured on anti-human IgG chip, rising concentrations of human EphA5 injected, raw and 1:1-fitted curves
[3] = biological target: recombinant human EphA5 (rhEphA5) antigen (human) (UniProt P54756); assay: SPR (Biacore T200) single-cycle kinetics, supernatant IgG captured on anti-human IgG chip, rhEphA5 as analyte
[4] = biological target: recombinant human EphA5 (rhEphA5) antigen (human) (UniProt P54756); assay: SPR (Biacore T200) multi-cycle kinetics, purified IgG captured on anti-human IgG chip, recombinant EphA5 as analyte
[5] = biological target: recombinant human EphA5 (rhEphA5) antigen (human) (UniProt P54756); assay: SPR multi-cycle kinetics (Biacore T200), IgG captured on anti-human IgG chip, rising concentrations of human EphA5 injected, raw and 1:1-fitted curves [continued]

| Binder | binding [1] | binding [2] | binding [3] | binding [4] | binding [5] |
| --- | --- | --- | --- | --- | --- |
| B1 | binds | binds | – | – | – |
| B2 | binds | – | – | – | – |
| B3 | binds | – | – | – | – |
| B4 | binds | – | binds | – | – |
| B5 | binds | – | binds | – | – |
| B6 | binds | binds | binds | binds | – |
| B7 | binds | – | binds | – | – |
| B8 | binds | – | binds | – | – |
| B9 | binds | – | binds | binds | binds |
| B10 | binds | – | binds | binds | binds |
| B11 | binds | – | binds | – | – |
| B12 | binds | – | binds | – | – |
| B13 | binds | – | binds | – | – |
| B14 | binds | – | binds | – | – |
| B15 | binds | – | binds | – | – |
| B16 | binds | – | binds | – | – |

— patent US20240115722A1
